Measurements reported in PubChem BioAssay AID1794845 (National Center for Advancing Translational Sciences (NCATS), 2023).
Hit rate of the full screen: of about 6,900 compounds, fewer than 10 were called active. Calls come from the whole dose curve; as a rule, active = well fitted curve in the direction sought with a large enough effect; inconclusive = small, poorly fitted or top-dose-only effect, or another doubt; inactive = no such curve, though single readings can be large or run the other way. The list shows a part of the results.

Sequences of proteins named here, by UniProt entry; tags and fusion partners are left off. A change or cut given only in a name is not applied to a line headed by its entry.
UniProt C7C422: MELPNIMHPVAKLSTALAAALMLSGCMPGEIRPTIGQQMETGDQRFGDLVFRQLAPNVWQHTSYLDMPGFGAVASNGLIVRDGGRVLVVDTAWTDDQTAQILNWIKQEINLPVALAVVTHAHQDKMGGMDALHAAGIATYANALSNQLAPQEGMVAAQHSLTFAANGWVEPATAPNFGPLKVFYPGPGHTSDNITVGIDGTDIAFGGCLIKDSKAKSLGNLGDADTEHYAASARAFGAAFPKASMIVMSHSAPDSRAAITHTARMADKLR

Target: Metallo-beta-lactamase type 2 (Klebsiella pneumoniae) (UniProt C7C422)
Experiment: qHTS to identify inhibitors of the New Delhi Metallo-beta-lactamase (NDM): primary screen against the NCATS Gemini Collection; note: % of control where 0% means no effect
Conditions: NDM-1 enzyme, meropenem hydrolysis, absorbance 300 nm; at 38.4 µM (top of the series) unless noted
Summary of the method: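 Meropenem hydrolysis (50 uM final) by 2 nM NDM-1 read as 300 nm absorbance after 30 min, following >30 min compound–enzyme preincubation in HEPES pH 7.0 with 1 uM ZnSO4 and 0.01% Tween20.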

Activity % (negative = inhibition), inactive:
CN(C)c1cccc(-c2cnc(Nc3ccc(N4CCOCC4)cc3)c3c2CCO3)c1 18.7% [at 57.5 µM]
COc1ccc(CC(=O)N(C)C2CCc3ccccc3C2)cc1 (stereo not given) 5.6% [at 57.5 µM]
COc1ccc(-c2nc(C3CC3)nc3c2CCN(CCC(C)C)CC3)cc1 49.5%
CC(C)OC(=O)N1CCC(COc2ccc3c(cnn3CCC(=O)O)c2)CC1 5.9% [at 57.5 µM]
CCc1nc2c(NC(=O)c3ccc(F)c(Cl)c3)cccn2n1 8.21%
CN1CCCN(CC(=O)N2CCCC(c3ccc(C(=O)O)cc3)C2)CC1 (stereo not given) -0.8%
O=C1NC2(CCN(Cc3ccccc3)C2)Oc2ccccc21 (stereo not given) 6.56% [at 57.5 µM]
CN(CCc1ccccc1)[C@@H]1[C@H](O)[C@H](CO)O[C@@H]1CNS(=O)(=O)c1cccs1 14.1%
O[C@H]1[C@H](NCc2cnc3ccccc3c2)[C@H]2CO[C@H](O2)[C@@H]1N1CCCCC1 0.493% [at 57.5 µM]
O=C(CCc1cc2n(n1)CCCNC2)Nc1ccc2c(c1)OCCO2 63.7%
Cc1cnn(CCC(=O)NC2CCc3nnc(C)n3CC2)c1 (stereo not given) 35.5%
O=C(c1cccnc1)N1CCC2(CC1)C(=O)NN=C2c1cccnc1 8.82%
Cc1nc(CN2CCN(c3cc(C4CC(O)C4)ncn3)CC2)cs1 (stereo not given) 4.21%
O=C1COCC2(CN(CCC(F)(F)F)C2)CN1Cc1cccc(OC(F)(F)F)c1 1.33% [at 57.5 µM]
Fc1ccc2nc(CO[C@H]3CN(C4CCC4)C[C@H]3F)[nH]c2c1 15.9% [at 57.5 µM]
O=C(NCC1CC1)C1CCCN(C2CCN(Cc3ccncc3)CC2)C1 (stereo not given) 3%
O=C(Cc1ccc(F)c(F)c1F)N[C@@H]1CCNC[C@H]1O -3.13%
CC(C)NC(=O)C1COC2(CCCCC2)N1C(=O)Cc1ccccc1 (stereo not given) 3.61%
Cc1cc(C(=O)N2C[C@@H](COCC3CC3)[C@H](c3ccccn3)C2)n[nH]1 -0.139%
Cc1nc(-c2ccc(F)cc2)n(Cc2ccc(F)c(F)c2)c(=O)c1CCO -2.72%
O=C(c1ccccc1)N1CCC2(CC1)C(=O)NN=C2c1ccccn1 7.88% [at 57.5 µM]
Cc1ccn(CC(=O)N2CCCn3ccnc3C2c2cnn(C)c2)n1 (stereo not given) 1.14%
Cc1cccc(C(=O)N2CCC(c3noc(CO)n3)C2)c1 (stereo not given) 10.2%
Cc1cnn(-c2cc(N3CCC(n4cc(C5CCCC5)nn4)CC3)ncn2)c1 4.64%
O=C1Nc2ccccc2C2(CCN(C(=O)c3cccnc3)C2)O1 (stereo not given) 3.28% [at 57.5 µM]
Cc1cc(C)n(CCc2c(-c3ccccc3)ncn2C(C)CCCC(C)(C)O)n1 (stereo not given) -2.56%
CC(c1cccs1)N(C)Cc1ccc(C(F)(F)F)cc1 (stereo not given) -0.156% [at 57.5 µM]
CCc1ccc(CN2CCN(c3ccc(C(N)=O)cn3)CC2)nc1 17.8%
O=C(CCNC(=O)c1cnccn1)NC1CCCc2c1[nH]c1ccc(Cl)cc21 (stereo not given) 12.7%
COc1ccc2cc(C3CN(C(=O)CNC(=O)C(C)C)CCO3)ccc2c1 (stereo not given) -1.68%
COc1cc(C)cc(C(C(=O)O)N2CCN(c3cnccn3)CC2)c1OC (stereo not given) -4.3%
O=S(=O)(N[C@H]1CO[C@H]2[C@@H]1OC[C@H]2O)c1ccc(Cl)cc1 -1.35% [at 57.5 µM]
CN(C)C[C@@H]1CN(C2CCOCC2)C[C@H]1NC(=O)C1CC=CCC1 (stereo not given in full) -0.995%
Cc1[nH]c2ccccc2c1CC(=O)NCc1ccccc1-n1cncn1 7.08%
O=C(c1cccc(F)c1F)N1CCCC2(CCNCC2)CC1 -2.52%
Cc1cnc(C(=O)NC2CC(c3nnc(CO)n3C3CC3)C2)[nH]1 (stereo not given) 0.0394%
CN1CCN(c2nc3c(c(=O)[nH]2)CCN(Cc2ccc4[nH]ccc4c2)CC3)CC1 2.32%
COc1ccc(C(=O)N[C@@H]2CCC[C@@H]2C(=O)N2CCSCC2)cc1 -0.0788%
Cc1nn(-c2ccccc2)c2c1C(C1CC1)N(C1CCN([S+](=O)([O-])c3ccccc3)C1)C2=O (stereo not given) 15%
COCCOC1CCN(C(=O)NCc2ccc(C)cc2)CC1 -0.0357%
CNC(=O)NCCc1ncc(C)n1C1CCCCCCC1 -11.8%
Cc1ccc(OCC(=O)N2CCCC(CN3CCCC3)CC2)cc1 (stereo not given) 7.6%
CN(C)C(=O)N1CCCC(C(=O)NCCc2nc(-c3ccccn3)no2)C1 (stereo not given) -3.07%
CS(=O)(=O)N1C[C@H]2CCN(C(=O)Cc3ccccc3Cl)C[C@H]21 1.14%
O=C(CC1C(=O)NCCN1CC(c1ccccc1)c1ccccc1)NCc1ccco1 (stereo not given) 15.6%
O=C(O)c1ccc(CN2C[C@@H]3OCC(=O)N(c4ccccc4)[C@@H]3C2)cc1 -0.309% [at 57.5 µM]
O=C(NCC1CN(C(=O)Cc2cccc(Cl)c2)CC12CN(c1ccccc1)C2)C1CC1 (stereo not given) -2.23% [at 57.5 µM]
CCC(=O)N1Cc2ccccc2OC2(CCN(C(C)C)CC2)C1 -9.64%
CC(C)Cc1noc(CN(C)C(=O)CC2C(=O)NCCN2CC(C)C)n1 (stereo not given) 0.659%
Cc1cccc(OCCc2noc(C3CCCN3)n2)c1 (stereo not given) 5.62%
O=C(c1ccco1)N1CCCC1c1nc(C2CCOCC2)no1 (stereo not given) 4.67%
CC(=O)Nc1ccc(Cl)c(C(=O)N(C)Cc2sccc2C)c1 8.73%
C[C@@H](c1ccccc1)N1C(=O)[C@@H]2CN(C(=O)CC3(CC(=O)O)CCCC3)CCN2C1=O 7.3% [at 57.5 µM]
O=C(c1cccnc1)N1C[C@@H]2OCC(=O)N(c3ccccc3)[C@@H]2C1 0.667% [at 57.5 µM]
CC(CCC(=O)N1CCn2nc(Cc3ccccc3)cc2C1)N1CCCC1 (stereo not given) 0.806%
CC1(C)[C@H](Cc2cc(-c3ccccc3)on2)C[C@@H]1NCC1CC1 8.09% [at 57.5 µM]
Cc1noc(C)c1C(=O)N[C@@H]1CN(c2ncccn2)C[C@H]1CN(C)C 0.997%
Cc1ccc([S+](=O)([O-])NC2CCN(CCn3nc4n(c3=O)CCCC4)C2)cc1 (stereo not given) 1.86%
O=C(CCc1nnn2c1CN(C(=O)COc1ccc(F)cc1)CC2)NCc1ccccc1 -4.92%
CC(=O)N1CCC(OCCOc2ccccc2)CC1 -7.31%
COCCc1noc(-c2ccccc2OC2CN(C(=O)Cc3c[nH]c4ccccc34)C2)n1 -0.0178%
Nc1ncccc1CNC(=O)[C@H]1CCC[C@H](O)C1 16.9%
Cc1cc(C(=O)N2CCC(N3CCCC(C(=O)NCCc4ccccc4)C3)CC2)n[nH]1 (stereo not given) 5.67%
C[S+](=O)([O-])N1CCC(Cn2ccc3c(N4CCOCC4)nc(-c4cccc5[nH]ncc45)cc32)CC1 33.7%
CC(C)c1noc(-c2cn(C3CCN(C(=O)COc4ccccc4)CC3)nn2)n1 0.677%
O=C1c2cncnc2OCC(CNC(=O)C2(c3ccccc3)CC2)N1Cc1ccccc1 (stereo not given) 0.897% [at 57.5 µM]
O=c1c2c(CO)c(-c3ccccc3)nn2ccn1CCOc1ccccc1 -3.4%
O=C(N[C@H]1CCN2C(=O)c3cc(/C=C/c4ccccc4)ccc3NC(=O)[C@H]12)C1CCCC1 35.6% [at 57.5 µM]
CC(C)(O)CCc1cccc(C(=O)NCCCc2ccccn2)c1 -14.2%
CN(CC1CCOCC1)S(=O)(=O)c1ccc(Cl)cc1 -2.55%
CN1CCC(N2CC[C@H](c3nc4ccc(C(F)(F)F)cc4[nH]3)C2)CC1 0.273% [at 57.5 µM]
O=C1NCCCCCCN(S(=O)(=O)Cc2ccccc2F)[C@H]2CCC[C@@H]12 2.23%
CCCN1CC2(CCN(C)CC2)CC1C(=O)N(C)Cc1ccn[nH]1 (stereo not given) -4.1%
COc1ccc(CCCN2C(=O)O[C@@H]3CN(S(=O)(=O)N(C)C)C[C@@H]32)cc1 8.51%
COc1ccc(-c2onc(C)c2C(=O)NCCCCc2ccccc2)cc1 2.23%
CCOc1cccc(-c2nc(C(=O)Nc3ccc(F)cc3)cs2)c1 19%
CSCC[C@H](N)C(=O)N1CCC2(CCC(=O)N(Cc3ccccc3)C2)CC1 -0.669%
C=CCN1CC2(CCC1=O)CCN(C(=O)CC(C)n1ccnc1C)CC2 (stereo not given) 37.7%
Cn1cccc1C(=O)N1CC[C@H](CO)[C@H](NC(=O)C2CC2)C1 4.08%
COC(=O)CNC(=O)c1nc(-c2ccc(Cl)nc2)c2ccccn12 -6.02%
COc1ccccc1-c1cn2c(n1)CO[C@@H](CNC1CCOCC1)C2 0.191% [at 57.5 µM]
Cn1cc(Nc2ccc(Cl)cc2)c2nc(CN3CC[S+](=O)([O-])CC3)cn2c1=O 29.2% [at 57.5 µM]
COC[C@H]1C[C@@H](NC(=O)Nc2ccc(F)cc2)[C@H](O)[C@@H]1O 26.3% [at 57.5 µM]
CC1(C(=O)N2CCc3ccccc32)CCCCC(=O)N1 (stereo not given) 1.12%
Cc1cc(C)n2nc(C)c(C(=O)N3CCCC(c4cccc(C(=O)O)c4)C3)c2n1 (stereo not given) -5.79%

Sorted by SMILES length (falling): part of the list above.
Activity % (negative = inhibition), inactive:
C[S+](=O)([O-])N1CCC(Cn2ccc3c(N4CCOCC4)nc(-c4cccc5[nH]ncc45)cc32)CC1 33.7%
Cc1ccc([S+](=O)([O-])NC2CCN(CCn3nc4n(c3=O)CCCC4)C2)cc1 (stereo not given) 1.86%
COC[C@H]1C[C@@H](NC(=O)Nc2ccc(F)cc2)[C@H](O)[C@@H]1O 26.3% [at 57.5 µM]
O=C(CCc1nnn2c1CN(C(=O)COc1ccc(F)cc1)CC2)NCc1ccccc1 -4.92%
Cc1nc(-c2ccc(F)cc2)n(Cc2ccc(F)c(F)c2)c(=O)c1CCO -2.72%
Cc1cnn(CCC(=O)NC2CCc3nnc(C)n3CC2)c1 (stereo not given) 35.5%
